Here are results for four molecules from PMC11741623.

No constants are given. Whether binding was seen depends on the method and setting. Binding seen in cells or lysates may run through a third protein. Some entries that bind do so weakly or less than the wild type.

The target of assay [1] is SARS-CoV-2 NSP4 (SARS-CoV-2) (UniProt P0DTD1). As to the kind of experiment: split reporter; pooled PPIseq: mDHFR protein-fragment complementation in diploid S. cerevisiae, hORF-F[1,2] x vORF-F[3], pooled competition in SD+His+Leu + 1 ug/mL methotrexate at 30 C, triplicate, lineage fitness by double-barcode sequencing; hit: FDR < 0.05 against NULL-F[1,2] x vORF-F[3] in at least one replicate.

The target in assay [2] is Leu2p (ORF of yeast LEU2) (yeast) (UniProt P04173). As to the kind of experiment: split reporter; mDHFR protein-fragment complementation in diploid S. cerevisiae, clonal strains, all pairwise combinations of F[1,2]- and F[3]-tagged ORFs, growth on SC-URA + 100 ug/mL methotrexate agar, two days, scanned.
The next assay deals with TRIM15 (human) (UniProt Q9C019). As to the kind of experiment: split reporter.

B1: KDEL-receptor KDELR3 (receptor, UniProt O43731 1-214)
chain: MNVFRILGDLSHLLAMILLLGKIWRSKCCKGISGKSQILFALVFTTRYLDLFTNFISIYNTVMKVVFLLCAYVTVYMIYGKFRKTFDSENDTFRLEFLLVPVIGLSFLENYSFTLLEILWTFSIYLESVAILPQLFMISKTGEAETITTHYLFFLGLYRALYLANWIRRYQTENFYDQIAVVSGVVQTIFYCDFFYLYVTKVLKGKKLSLPMPI
B1: the binding result in assay [1] is given as “binds”.

B2: Leu2p (ORF of yeast LEU2) (protein, UniProt P04173 1-364)
chain: MSAPKKIVVLPGDHVGQEITAEAIKVLKAISDVRSNVKFDFENHLIGGAAIDATGVPLPDEALEASKKADAVLLGAVGGPKWGTGSVRPEQGLLKIRKELQLYANLRPCNFASDSLLDLSPIKPQFAKGTDFVVVRELVGGIYFGKRKEDDGDGVAWDSEQYTVPEVQRITRMAAFMALQHEPPLPIWSLDKANVLASSRLWRKTVEETIKNEFPTLKVQHQLIDSAAMILVKNPTHLNGIIITSNMFGDIISDEASVIPGSLGLLPSASLASLPDKNTAFGLYEPCHGSAPDLPKNKVNPIATILSAAMMLKLSLNLPEEGKAIEDAVKKVLDAGIRTGDLGGSNSTTEVGDAVAEEVKKILA
Consider B2, for which the binding entry in assay [2] is reported as “binds”.

B3: KDEL-receptor KDELR2 (receptor, UniProt P33947 1-212)
chain: MNIFRLTGDLSHLAAIVILLLKIWKTRSCAGISGKSQLLFALVFTTRYLDLFTSFISLYNTSMKVIYLACSYATVYLIYLKFKATYDGNHDTFRVEFLVVPVGGLSFLVNHDFSPLEILWTFSIYLESVAILPQLFMISKTGEAETITTHYLFFLGLYRALYLVNWIWRFYFEGFFDLIAVVAGVVQTILYCDFFYLYITKVLKGKKLSLPA
With B3, the binding result in assay [1] was “binds”.

B4: TRIM15 (protein, UniProt Q9C019 1-465)
chain: MPATPSLKVVHELPACTLCAGPLEDAVTIPCGHTFCRLCLPALSQMGAQSSGKILLCPLCQEEEQAETPMAPVPLGPLGETYCEEHGEKIYFFCENDAEFLCVFCREGPTHQAHTVGFLDEAIQPYRDRLRSRLEALSTERDEIEDVKCQEDQKLQVLLTQIESKKHQVETAFERLQQELEQQRCLLLARLRELEQQIWKERDEYITKVSEEVTRLGAQVKELEEKCQQPASELLQDVRVNQSRCEMKTFVSPEAISPDLVKKIRDFHRKILTLPEMMRMFSENLAHHLEIDSGVITLDPQTASRSLVLSEDRKSVRYTRQKKSLPDSPLRFDGLPAVLGFPGFSSGRHRWQVDLQLGDGGGCTVGVAGEGVRRKGEMGLSAEDGVWAVIISHQQCWASTSPGTDLPLSEIPRGVRVALDYEAGQVTLHNAQTQEPIFTFTASFSGKVFPFFAVWKKGSCLTLKG
In the case of B4, in the assay with TRIM15 (human), the binding result is “binds”.
